The supplement of paper PMC10849652
Some of the results follow.

Amino acid sequences for entries named in this document (tags omitted). A change or cut given only in a name is not applied to a line headed by its entry.
UniProt Q5VZ89: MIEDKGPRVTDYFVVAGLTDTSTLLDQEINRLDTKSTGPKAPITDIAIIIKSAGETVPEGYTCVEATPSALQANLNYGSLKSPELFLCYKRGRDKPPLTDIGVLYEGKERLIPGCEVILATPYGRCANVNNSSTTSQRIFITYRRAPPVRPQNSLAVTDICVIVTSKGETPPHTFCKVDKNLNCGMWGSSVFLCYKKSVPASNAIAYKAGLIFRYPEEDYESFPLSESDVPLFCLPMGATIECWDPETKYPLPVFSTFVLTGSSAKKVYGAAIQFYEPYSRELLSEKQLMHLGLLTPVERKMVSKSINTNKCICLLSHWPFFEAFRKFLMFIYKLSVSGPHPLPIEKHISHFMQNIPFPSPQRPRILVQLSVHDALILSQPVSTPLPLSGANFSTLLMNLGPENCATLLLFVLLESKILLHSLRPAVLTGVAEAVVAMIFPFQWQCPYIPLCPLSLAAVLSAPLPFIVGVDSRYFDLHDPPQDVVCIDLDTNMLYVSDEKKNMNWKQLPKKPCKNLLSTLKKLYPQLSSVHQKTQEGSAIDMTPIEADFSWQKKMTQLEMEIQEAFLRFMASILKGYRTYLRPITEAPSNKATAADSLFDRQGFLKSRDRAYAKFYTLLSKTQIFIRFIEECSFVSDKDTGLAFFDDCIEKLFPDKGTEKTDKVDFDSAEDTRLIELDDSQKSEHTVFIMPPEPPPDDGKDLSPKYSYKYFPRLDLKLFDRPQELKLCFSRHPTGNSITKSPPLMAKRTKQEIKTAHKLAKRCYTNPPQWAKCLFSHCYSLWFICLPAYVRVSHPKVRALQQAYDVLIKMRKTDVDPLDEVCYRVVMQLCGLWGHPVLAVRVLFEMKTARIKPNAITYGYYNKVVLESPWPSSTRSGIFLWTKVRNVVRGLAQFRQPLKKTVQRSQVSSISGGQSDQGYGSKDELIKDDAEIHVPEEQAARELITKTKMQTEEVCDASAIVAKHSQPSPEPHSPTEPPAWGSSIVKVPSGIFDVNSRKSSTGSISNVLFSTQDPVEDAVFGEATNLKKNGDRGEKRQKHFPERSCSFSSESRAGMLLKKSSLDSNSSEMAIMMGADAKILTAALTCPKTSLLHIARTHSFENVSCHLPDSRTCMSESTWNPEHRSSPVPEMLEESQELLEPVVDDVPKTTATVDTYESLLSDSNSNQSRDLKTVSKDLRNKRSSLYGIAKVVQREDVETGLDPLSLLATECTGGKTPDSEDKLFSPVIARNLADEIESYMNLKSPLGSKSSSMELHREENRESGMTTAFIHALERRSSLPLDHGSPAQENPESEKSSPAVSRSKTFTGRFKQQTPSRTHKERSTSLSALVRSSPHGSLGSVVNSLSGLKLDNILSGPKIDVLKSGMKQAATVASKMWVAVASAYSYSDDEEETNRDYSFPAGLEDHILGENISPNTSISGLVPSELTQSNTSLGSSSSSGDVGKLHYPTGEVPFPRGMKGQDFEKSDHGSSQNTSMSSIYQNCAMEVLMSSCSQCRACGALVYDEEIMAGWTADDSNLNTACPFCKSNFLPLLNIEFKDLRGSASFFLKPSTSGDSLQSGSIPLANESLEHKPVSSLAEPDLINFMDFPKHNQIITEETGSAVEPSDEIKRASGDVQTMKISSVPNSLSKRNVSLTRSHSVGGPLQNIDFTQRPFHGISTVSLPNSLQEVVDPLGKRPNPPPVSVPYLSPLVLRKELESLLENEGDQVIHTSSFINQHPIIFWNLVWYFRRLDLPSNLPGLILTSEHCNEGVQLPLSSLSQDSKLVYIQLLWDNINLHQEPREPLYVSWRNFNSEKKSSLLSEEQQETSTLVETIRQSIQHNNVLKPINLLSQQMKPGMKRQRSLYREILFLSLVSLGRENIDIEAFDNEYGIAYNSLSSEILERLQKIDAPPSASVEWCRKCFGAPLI
UniProt Q16643: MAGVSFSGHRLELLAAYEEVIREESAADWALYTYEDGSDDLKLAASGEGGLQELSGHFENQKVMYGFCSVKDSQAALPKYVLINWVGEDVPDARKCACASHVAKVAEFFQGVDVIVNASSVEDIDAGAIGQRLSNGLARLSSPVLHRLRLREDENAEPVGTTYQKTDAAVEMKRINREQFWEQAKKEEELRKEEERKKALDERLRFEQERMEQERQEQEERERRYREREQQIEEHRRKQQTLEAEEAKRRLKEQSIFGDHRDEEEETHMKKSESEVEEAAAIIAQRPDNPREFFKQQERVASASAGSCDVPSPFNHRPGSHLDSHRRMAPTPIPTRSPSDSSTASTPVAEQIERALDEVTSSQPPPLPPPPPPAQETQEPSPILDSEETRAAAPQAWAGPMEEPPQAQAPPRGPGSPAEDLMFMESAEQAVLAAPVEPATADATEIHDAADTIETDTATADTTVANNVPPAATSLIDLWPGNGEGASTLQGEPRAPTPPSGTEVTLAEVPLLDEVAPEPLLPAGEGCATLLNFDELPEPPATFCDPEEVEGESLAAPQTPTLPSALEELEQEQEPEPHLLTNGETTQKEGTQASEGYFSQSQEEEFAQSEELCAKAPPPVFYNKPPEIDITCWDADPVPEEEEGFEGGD
UniProt Q9BTE1, whole entry, looked up: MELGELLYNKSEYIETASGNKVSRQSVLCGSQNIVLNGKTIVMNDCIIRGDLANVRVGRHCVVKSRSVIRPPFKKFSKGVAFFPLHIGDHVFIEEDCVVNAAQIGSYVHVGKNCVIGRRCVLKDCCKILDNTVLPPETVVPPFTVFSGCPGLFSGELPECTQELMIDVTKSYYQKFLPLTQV
UniProt O00273: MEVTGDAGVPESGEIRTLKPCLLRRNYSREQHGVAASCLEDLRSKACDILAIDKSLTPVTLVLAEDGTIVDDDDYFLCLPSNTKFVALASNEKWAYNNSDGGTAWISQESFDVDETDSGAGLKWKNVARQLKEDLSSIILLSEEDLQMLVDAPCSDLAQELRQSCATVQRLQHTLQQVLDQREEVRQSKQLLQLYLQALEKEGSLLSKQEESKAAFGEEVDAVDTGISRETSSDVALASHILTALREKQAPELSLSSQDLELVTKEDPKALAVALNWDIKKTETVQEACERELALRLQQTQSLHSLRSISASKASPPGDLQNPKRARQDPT
UniProt Q5T1V6: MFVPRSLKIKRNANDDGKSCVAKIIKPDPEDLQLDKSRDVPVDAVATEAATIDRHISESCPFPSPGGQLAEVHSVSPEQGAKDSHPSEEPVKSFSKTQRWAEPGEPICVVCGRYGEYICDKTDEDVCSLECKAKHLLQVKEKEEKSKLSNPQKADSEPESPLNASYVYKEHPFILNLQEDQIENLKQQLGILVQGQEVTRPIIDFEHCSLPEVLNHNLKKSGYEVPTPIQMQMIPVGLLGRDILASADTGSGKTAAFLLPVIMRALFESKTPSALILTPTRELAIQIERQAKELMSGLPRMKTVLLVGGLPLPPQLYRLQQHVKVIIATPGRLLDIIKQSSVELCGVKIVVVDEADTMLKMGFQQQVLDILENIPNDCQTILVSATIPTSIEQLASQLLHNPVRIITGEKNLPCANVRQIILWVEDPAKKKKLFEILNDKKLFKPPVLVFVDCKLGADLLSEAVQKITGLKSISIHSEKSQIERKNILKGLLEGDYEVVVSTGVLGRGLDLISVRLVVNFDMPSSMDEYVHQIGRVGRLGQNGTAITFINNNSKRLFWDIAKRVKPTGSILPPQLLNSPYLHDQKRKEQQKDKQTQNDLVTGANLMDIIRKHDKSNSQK
UniProt P30046: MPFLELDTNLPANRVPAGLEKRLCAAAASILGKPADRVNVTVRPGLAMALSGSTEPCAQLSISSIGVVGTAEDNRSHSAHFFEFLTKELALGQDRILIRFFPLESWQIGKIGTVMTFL
UniProt Q9GZP9: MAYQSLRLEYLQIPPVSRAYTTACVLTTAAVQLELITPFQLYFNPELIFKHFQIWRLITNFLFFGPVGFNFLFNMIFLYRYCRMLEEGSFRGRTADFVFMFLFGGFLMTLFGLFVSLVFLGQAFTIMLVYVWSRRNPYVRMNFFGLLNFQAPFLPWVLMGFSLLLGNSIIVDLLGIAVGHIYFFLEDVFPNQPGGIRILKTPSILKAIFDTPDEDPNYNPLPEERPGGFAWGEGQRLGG
UniProt Q9NPI6: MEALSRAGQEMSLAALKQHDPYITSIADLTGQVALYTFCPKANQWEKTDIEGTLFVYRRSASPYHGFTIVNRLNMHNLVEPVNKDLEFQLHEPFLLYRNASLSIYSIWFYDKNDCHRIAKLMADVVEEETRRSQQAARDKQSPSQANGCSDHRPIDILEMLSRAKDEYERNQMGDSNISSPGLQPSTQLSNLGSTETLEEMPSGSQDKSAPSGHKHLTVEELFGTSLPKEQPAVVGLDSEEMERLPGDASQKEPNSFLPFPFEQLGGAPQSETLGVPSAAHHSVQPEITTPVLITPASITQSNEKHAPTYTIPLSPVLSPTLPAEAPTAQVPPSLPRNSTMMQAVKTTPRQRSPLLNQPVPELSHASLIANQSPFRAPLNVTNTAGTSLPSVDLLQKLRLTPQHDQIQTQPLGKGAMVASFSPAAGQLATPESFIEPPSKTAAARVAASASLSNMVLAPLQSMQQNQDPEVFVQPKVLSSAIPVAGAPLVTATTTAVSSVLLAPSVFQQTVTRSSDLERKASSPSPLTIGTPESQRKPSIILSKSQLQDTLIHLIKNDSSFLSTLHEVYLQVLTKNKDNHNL
UniProt Q5TDH0: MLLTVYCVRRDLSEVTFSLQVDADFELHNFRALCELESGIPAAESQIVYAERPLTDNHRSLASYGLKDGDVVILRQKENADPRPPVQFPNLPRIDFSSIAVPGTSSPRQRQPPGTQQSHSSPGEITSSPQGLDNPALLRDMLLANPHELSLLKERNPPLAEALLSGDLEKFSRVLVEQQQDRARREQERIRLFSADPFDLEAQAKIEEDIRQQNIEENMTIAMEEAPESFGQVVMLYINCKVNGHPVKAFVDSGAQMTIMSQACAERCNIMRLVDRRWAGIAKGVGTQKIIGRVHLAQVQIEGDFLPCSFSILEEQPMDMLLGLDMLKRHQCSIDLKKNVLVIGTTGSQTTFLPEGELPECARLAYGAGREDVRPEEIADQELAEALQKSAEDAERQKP
UniProt Q6P3S1: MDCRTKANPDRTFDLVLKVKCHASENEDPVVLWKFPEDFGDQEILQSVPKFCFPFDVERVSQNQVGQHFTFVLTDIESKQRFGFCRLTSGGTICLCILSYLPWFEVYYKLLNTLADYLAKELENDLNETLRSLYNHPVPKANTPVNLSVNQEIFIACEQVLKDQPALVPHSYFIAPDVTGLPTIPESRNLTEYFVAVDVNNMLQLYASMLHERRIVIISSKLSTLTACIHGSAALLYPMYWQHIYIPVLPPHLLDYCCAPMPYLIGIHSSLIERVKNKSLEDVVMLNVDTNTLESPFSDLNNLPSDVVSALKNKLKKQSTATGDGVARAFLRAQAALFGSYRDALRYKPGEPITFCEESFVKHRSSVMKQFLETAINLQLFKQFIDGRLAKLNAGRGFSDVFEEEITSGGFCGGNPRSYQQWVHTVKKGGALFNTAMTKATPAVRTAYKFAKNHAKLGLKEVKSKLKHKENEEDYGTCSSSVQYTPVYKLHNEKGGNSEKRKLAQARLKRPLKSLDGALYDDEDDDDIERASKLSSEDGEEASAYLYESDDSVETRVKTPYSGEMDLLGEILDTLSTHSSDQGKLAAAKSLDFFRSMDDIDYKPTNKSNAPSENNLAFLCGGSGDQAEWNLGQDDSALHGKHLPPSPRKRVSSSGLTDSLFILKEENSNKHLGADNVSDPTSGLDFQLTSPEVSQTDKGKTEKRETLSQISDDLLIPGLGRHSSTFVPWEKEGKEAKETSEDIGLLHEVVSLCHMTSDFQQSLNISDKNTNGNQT
UniProt Q92499: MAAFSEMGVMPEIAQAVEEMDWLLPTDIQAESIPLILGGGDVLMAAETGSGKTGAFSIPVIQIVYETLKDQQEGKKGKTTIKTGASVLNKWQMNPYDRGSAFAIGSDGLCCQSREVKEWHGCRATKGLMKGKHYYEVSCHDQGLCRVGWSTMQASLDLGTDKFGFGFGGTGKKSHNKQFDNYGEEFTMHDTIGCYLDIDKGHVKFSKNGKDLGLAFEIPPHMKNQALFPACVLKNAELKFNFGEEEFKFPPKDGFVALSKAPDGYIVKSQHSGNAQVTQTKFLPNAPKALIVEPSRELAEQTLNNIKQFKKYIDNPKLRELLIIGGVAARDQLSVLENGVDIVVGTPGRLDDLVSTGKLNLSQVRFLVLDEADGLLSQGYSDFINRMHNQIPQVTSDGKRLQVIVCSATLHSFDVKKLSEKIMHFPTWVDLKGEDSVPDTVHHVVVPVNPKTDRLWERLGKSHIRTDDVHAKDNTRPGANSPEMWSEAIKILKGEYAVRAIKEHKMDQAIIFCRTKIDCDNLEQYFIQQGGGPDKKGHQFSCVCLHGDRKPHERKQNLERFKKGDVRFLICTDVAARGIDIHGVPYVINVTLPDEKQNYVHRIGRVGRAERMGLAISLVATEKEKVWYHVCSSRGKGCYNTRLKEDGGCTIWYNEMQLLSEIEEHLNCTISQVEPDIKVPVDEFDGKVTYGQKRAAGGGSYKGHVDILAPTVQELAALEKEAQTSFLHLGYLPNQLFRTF

compound: Cc1cn(-c2cc(NC(=O)c3ccc(C)c(Nc4nccc(-c5cccnc5)n4)c3)cc(C(F)(F)F)c2)cn1 [nilotinib]; test: log2 fold change, soluble protein after heating vs DMSO (PISA); higher = thermal stabilisation; K562 lysate, 10 uM; active = over 0.2 and 3.5 SD of the protein, either way, in both replicates (recomputed)
How it was run: (§1)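 Values give the log-two fold change in thermal stability against solvent controls, from duplicates. Crude K562 extract at 1 mg/mL protein, made by dounce homogenisation in PBS pH 7.4 with 1 mM MgCl2, was treated with 10 μM compound for 30 min. After 3 min heating across 48°C-58°C, aliquots were pooled, adjusted to 0.5% NP-40 at 4°C and centrifuged at 21,000xg for 90 min. The supernatant was measured by TMTpro 16plex LC-MS/MS with channel sums equalised.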

log2 fold change, inactive:
DENND4C (UniProt Q5VZ89) 0.019
DEK (UniProt P35659) 0.007
DBN1 (UniProt Q16643) -0.018
DDX21 (UniProt Q9NR30) 0.001
DCTN5 (UniProt Q9BTE1) -0.002
D2HGDH (UniProt Q8N465) 0.016
DDX39B isoform 2 (UniProt Q13838) 0.015
DFFA isoform 2 (UniProt O00273) 0.084
DDB2 (UniProt Q92466) -0.027
DDX59 (UniProt Q5T1V6) -0.009
CYP51A1 (UniProt Q16850) 0.124
DEF6 (UniProt Q9H4E7) -0.058
DAD1 (UniProt P61803) -0.084
DERPC (UniProt P0CG12) 0.079
DDX39A (UniProt O00148) -0.002
DCTN1 (UniProt Q14203) 0.008
DDA1 (UniProt Q9BW61) 0.003
DCK (UniProt P27707) 0.031
DDT (UniProt P30046) 0.076
DERL2 (UniProt Q9GZP9) 0.001
DBR1 (UniProt Q9UK59) -0.016
DAGLB (UniProt Q8NCG7) 0.029
DARS2 (UniProt Q6PI48) -0.015
DCP1A (UniProt Q9NPI6) 0.022
DCAF8 (UniProt Q5TAQ9) 0.038
DDI2 isoform 3 (UniProt Q5TDH0) -0.005
DENND1B (UniProt Q6P3S1) 0.042
DDX1 (UniProt Q92499) 0.006
DAPK1 isoform 3 (UniProt P53355) -0.061
DERL1 (UniProt Q9BUN8) 0.037
DDX6 (UniProt P26196) -0.024
DENR (UniProt O43583) -0.008

compound: Cc1nc(Nc2n[nH]c3c2CN(C(=O)N[C@H](CN(C)C)c2ccccc2)C3(C)C)c2sccc2n1; test: as above
How it was run: as §1

log2 fold change, inactive:
DENND4C (UniProt Q5VZ89) 0.024
DEK (UniProt P35659) -0.009
DBN1 (UniProt Q16643) 0.035
DDX21 (UniProt Q9NR30) -0.007
DCTN5 (UniProt Q9BTE1) -0.065
D2HGDH (UniProt Q8N465) 0.067
DDX39B isoform 2 (UniProt Q13838) -0.01
DFFA isoform 2 (UniProt O00273) -0.064
DDB2 (UniProt Q92466) -0.024
DDX59 (UniProt Q5T1V6) 0.006
CYP51A1 (UniProt Q16850) -0.026
DEF6 (UniProt Q9H4E7) 0.046
DAD1 (UniProt P61803) 0.02
DERPC (UniProt P0CG12) 0.042
DDX39A (UniProt O00148) 0.02
DCTN1 (UniProt Q14203) -0.005
DDA1 (UniProt Q9BW61) 0.008
DCK (UniProt P27707) 0.056
DDT (UniProt P30046) -0.003
DERL2 (UniProt Q9GZP9) -0.042
DBR1 (UniProt Q9UK59) 0.028
DAGLB (UniProt Q8NCG7) -0.064
DARS2 (UniProt Q6PI48) -0.012
DCP1A (UniProt Q9NPI6) 0.117
DCAF8 (UniProt Q5TAQ9) -0.044
DDI2 isoform 3 (UniProt Q5TDH0) 0.012
DENND1B (UniProt Q6P3S1) -0.073
DDX1 (UniProt Q92499) -0.011
DAPK1 isoform 3 (UniProt P53355) 0.017
DERL1 (UniProt Q9BUN8) 0.071
DDX6 (UniProt P26196) 0.005
DENR (UniProt O43583) -0.03

compound: Cc1nc(Nc2ncc(C(=O)Nc3c(C)cccc3Cl)s2)cc(N2CCN(CCO)CC2)n1 [dasatinib]; test: as above
How it was run: as §1

log2 fold change, inactive:
DENND4C (UniProt Q5VZ89) -0.042
DEK (UniProt P35659) 0.016
DBN1 (UniProt Q16643) 0.028
DDX21 (UniProt Q9NR30) -0.014
DCTN5 (UniProt Q9BTE1) 0.083
D2HGDH (UniProt Q8N465) -0.007
DDX39B isoform 2 (UniProt Q13838) -0.001
DFFA isoform 2 (UniProt O00273) 0.038
DDB2 (UniProt Q92466) -0.033
DDX59 (UniProt Q5T1V6) 0.012
CYP51A1 (UniProt Q16850) 0.048
DEF6 (UniProt Q9H4E7) -0.034
DAD1 (UniProt P61803) -0.017
DERPC (UniProt P0CG12) 0.081
DDX39A (UniProt O00148) 0.001
DCTN1 (UniProt Q14203) -0.025
DDA1 (UniProt Q9BW61) -0.011
DCK (UniProt P27707) 0.074
DDT (UniProt P30046) -0.002
DERL2 (UniProt Q9GZP9) -0.005
DBR1 (UniProt Q9UK59) -0.017
DAGLB (UniProt Q8NCG7) -0.043
DARS2 (UniProt Q6PI48) -0.038
DCP1A (UniProt Q9NPI6) -0.052
DCAF8 (UniProt Q5TAQ9) 0.057
DDI2 isoform 3 (UniProt Q5TDH0) 0.004
DENND1B (UniProt Q6P3S1) 0.073
DDX1 (UniProt Q92499) -0.019
DAPK1 isoform 3 (UniProt P53355) -0.052
DERL1 (UniProt Q9BUN8) 0.014
DDX6 (UniProt P26196) 0
DENR (UniProt O43583) -0.001
